Measured values reported in article PMC6237750.

Molecular target: DNA polymerase beta I260Q (NMR, crystal) (UniProt P06746)
Experiment: NMR
Conditions: dCpCpp (incorrect), 10 mM MgCl2; NMR: 50 mM HEPES, 100 mM KCl, 2 mM DTT, 10 mM MgCl2, 10% D2O, pH 7.4; recombinant protein

CGACCGACTGCGCATCAGCC / GGCTGATGCGC / GTCGGTCG [NMR substrate template T (20)]
binding result: binds

Construct, isoform or probe ends are uncertain for at least one entry. At least one verdict was read from the data and is not stated in words by the source.
